Some of the results follow. These are further read-outs of the screen, such as a control signal, another cell line or another target. No call is given for them. The list favours compounds with an active or inconclusive main result. Words in brackets tell the shape of the fitted curve; partial curves, single points and poor fits give uncertain potencies.
Test: qHTS Assay to Find Inhibitors of Chronic Active B-Cell Receptor Signaling
Conditions: ABC-DLBCL IkBa-CBG/CBR reporter, luminescence ratio (green luciferase fused to IkBa over red control in TMD8 lymphoma cells), 4 h
Outline: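 Concentration-response series (up to 46 uM) were applied to TMD8 dual-reporter cells for 4 h at 37C with doxycycline. Green/red ratio, after filter-overlap correction, defined %Activity; red signal alone was normalised to basal cells and zero luminescence.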

[1] = measured here: CBR red luminescence, cell number
[2] = measured here: IkBa-CBG green luminescence

Row | SMILES | AC50 [1] | AC50 [2]
1 | Cc1ccc(S(=O)(=O)NCCc2nnc3ccc(SCC(=O)Nc4nc5ccccc5s4)nn23)cc1 | 6.51 µM [falling, single point] | –
2 | COc1ccc(CN(C(=O)c2ccc(CN3CCOCC3)o2)C(C(=O)NCC2CCCO2)c2ccc(F)cc2)cc1 (configuration not stated) | 14.1 µM [falling, partial curve, poor fit] | –
3 | Cc1nc(-c2ccccc2)sc1C1(C)CC(c2cccc([N+](=O)[O-])c2)=NO1 (configuration not stated) | 35.5 µM [rising, partial curve, poor fit] | –
4 | Cc1ccc(NC(=O)C(c2ccccc2)N(C)C)cc1Cl (configuration not stated) | 0.355 µM [rising, full curve, poor fit] | –
5 | COc1ccccc1CNC(=O)C1CCC(CNS(=O)(=O)c2ccc(NC(C)=O)cc2)CC1 (configuration not stated) | 6.31 µM [rising, single point] | –
6 | Cc1ccc(-c2csc(NC(=O)c3ccc4c(=O)n5c(nc4c3)CCCCC5)n2)cc1 | 5.17 µM [falling, single point] | –
7 | CCC(CC)c1nnc(NC(=O)CN2C(=O)C3C4C=CC(C4)C3C2=O)s1 (configuration not stated) | 2.06 µM [rising, partial curve, poor fit] | –
8 | C=CCNc1nc(SCC=C)nc2ccsc12 | 12.6 µM [rising, partial curve, poor fit] | –
9 | Cc1ccc(O)c(-c2cc(C(=O)Nc3ccc(S(=O)(=O)Nc4nccc(C)n4)cc3)[nH]n2)c1 | 20 µM [falling, single point] | –
10 | O=C(Nc1ccccc1)C1Cc2ccccc2CN1C(=O)c1ccco1 (configuration not stated) | 9.2 µM [falling, partial curve] | –
11 | Cc1nn(CCC(=O)NNC(=S)NCC(C)C)c(C)c1Br | – | 11.6 µM [falling, partial curve]
12 | c1ccc(N2CCCCC2)c(Nc2nc3ccccc3n3cnnc23)c1 | 6.31 µM [rising, full curve, poor fit] | –
13 | CN(C)CCCNS(=O)(=O)c1ccc(N2CCN(Cc3ccc4c(c3)OCO4)CC2)c([N+](=O)[O-])c1 | 35.5 µM [falling, single point] | –
14 | Nc1c(-c2ccccc2)cnc2cc(-c3ccccc3)nn12 | 2.82 µM [falling, full curve] | –
15 | O=C(O)CC(CC(=O)Nc1ccc(Oc2ccccc2)cc1)c1ccccc1 (configuration not stated) | 0.447 µM [falling, full curve, poor fit] | –
16 | Cc1ccc(-n2ncc3c(N4CCCCC4)ncnc32)cc1 | 11.2 µM [falling, single point] | –
17 | CCN(CC)S(=O)(=O)c1cccc(-c2nnc(C(=O)c3ccc(C(F)(F)F)cc3)o2)c1 | 35.5 µM [rising, partial curve, poor fit] | –
18 | COc1ccc2cnn(CCOc3ccccc3)c(=O)c2c1OC | 25.1 µM [falling, single point] | –
19 | COc1ccccc1CNS(=O)(=O)c1ccc(-c2cc(C)no2)cc1 | 10 µM [rising, partial curve] | 11.2 µM [falling, partial curve]
20 | O=C(OCC(=O)N1CCC(Cc2ccccc2)CC1)c1ccccc1NCCO | 2.31 µM [falling, full curve] | –
21 | CCCC1=Nc2cc(C(=O)NCCCOCC)ccc2Sc2ccccc21 | 1.26 µM [rising, full curve, poor fit] | 0.794 µM [falling, full curve, poor fit]

Looked up by compound from the list above:
Row | SMILES | AC50 [1] | AC50 [2]
21 | CCCC1=Nc2cc(C(=O)NCCCOCC)ccc2Sc2ccccc21 | 1.26 µM [rising, full curve, poor fit] | 0.794 µM [falling, full curve, poor fit]
7 | CCC(CC)c1nnc(NC(=O)CN2C(=O)C3C4C=CC(C4)C3C2=O)s1 (configuration not stated) | 2.06 µM [rising, partial curve, poor fit] | –

Following part

Row | SMILES | AC50 [1] | AC50 [2]
22 | N#Cc1c(NC(=O)CS(=O)(=O)c2ccc(Cl)cc2)sc2c1CCCCC2 | 6.31 µM [falling, single point] | –
23 | CC(CC(=O)Nc1nc2ccccc2[nH]1)n1ccnc1 (configuration not stated) | 12.6 µM [falling, partial curve, poor fit] | –
24 | COCCn1c(=O)[nH]c2cc(C(=O)NCCc3ccc(OC)c(OC)c3)ccc2c1=O | 0.708 µM [falling, full curve, poor fit] | –
25 | O=C(COc1ccc(-n2ccnc2)cc1)Nc1cccc(Cl)c1 | 2.24 µM [rising, partial curve, poor fit] | –
26 | O=S(=O)(NC1CCCCCC1)c1ccc(Br)s1 | – | 16.4 µM [rising, partial curve, poor fit]
27 | COc1cccc(C2=CC(c3ccc(OC)c(OC)c3)NC(=S)N2)c1 (configuration not stated) | 7.94 µM [falling, partial curve, poor fit] | –
28 | Cc1cccc(C(=O)NC2CCN(C(=O)Nc3ccccc3C)CC2)c1 | 14.1 µM [rising, partial curve, poor fit] | –
29 | Cc1csc(C2=C(O)CN(CCc3ccccc3)C2=N)n1 | 2.51 µM [rising, partial curve, poor fit] | –
30 | COC(=O)c1ccc(-n2c(C)cc(C(=O)CCl)c2C)cc1 | 11.2 µM [falling, partial curve, poor fit] | –
31 | CCOc1ccc(Cc2noc3c2C(=O)CC(C)(C)C3)cc1OCC | 3.16 µM [rising, partial curve, poor fit] | –
32 | Cc1cc(Cl)ccc1C1=CC(=O)C[C@H](c2ccc(F)cc2)C1 | 6.51 µM [rising, single point] | –
33 | O=C(Nc1ccc(Cl)cc1)N1CCCC(Cn2cccc2)C1 (configuration not stated) | 3.98 µM [rising, partial curve, poor fit] | –
34 | O=C(O)c1ccccc1-c1noc(-c2ccccc2F)n1 | 18.4 µM [falling, single point] | –
35 | Cc1ccc2nc(NCCc3ccccc3)c3nncn3c2c1 | 0.355 µM [rising, full curve, poor fit] | –
36 | Cc1ccc2nc(N(CCCN(C)C)C(=O)c3cc(-c4cccs4)nc4ccccc34)sc2c1 | 35.5 µM [falling, single point] | –
37 | Cn1c2ccccc2c(=O)c2c(=O)n(C3CCCCC3)c(-c3cccs3)nc21 | 20.6 µM [rising, partial curve, poor fit] | –
38 | C/C(=N\N=C1\NC(=O)C(CC(=O)Nc2ccc(C)c(Cl)c2)S1)C(C)C (configuration not stated) | 12.6 µM [falling, single point] | –
39 | Clc1ccc(Br)cc1-c1nc(-c2ccncc2)no1 | 1.03 µM [rising, full curve, poor fit] | –
40 | Cc1ccc2c(c1)C(=O)C(=O)N2Cc1ccc(C(F)(F)F)cc1 | 13 µM [rising, single point] | 16.4 µM [falling, single point]
41 | CC(C)c1ccc(OCc2cccc(C(=O)N/N=C/c3cccnc3)c2)cc1 | 0.184 µM [rising, full curve, poor fit] | –
42 | CN(c1ccc(C(=O)Nc2ccc3c(c2)n(C)c(=O)n3C)cc1)S(C)(=O)=O | 35.5 µM [rising, partial curve, poor fit] | –

Row | SMILES | AC50 [1] | AC50 [2]
43 | Nc1cc(-c2ccccc2)nn1S(=O)(=O)c1ccc(Br)cc1 | 8.2 µM [falling, partial curve, poor fit] | –
44 | CCOc1ccc2oc(-c3ccccc3)c(C(=O)N(C)C)c2c1 | 3.66 µM [falling, single point] | –
45 | CN(C)CCCN1C(=O)C(=O)/C(=C(/O)c2ccncc2)C1c1cccc(Br)c1 (configuration not stated) | 3.26 µM [rising, single point] | –
46 | Cc1[nH]c2ccccc2c1C(=O)C(=O)N1CCN(c2ccccc2)CC1 | 3.98 µM [rising, partial curve, poor fit] | –
47 | COc1ccc(/C=C/C2=CC(C)(C)NC(=S)N2)cc1 | 12.6 µM [falling, single point] | –
48 | CN(CC1COc2ccccc2O1)C(=S)Nc1ccccc1F (configuration not stated) | 2.91 µM [rising, partial curve, poor fit] | –
49 | Cc1ccc2nc(SCCC#N)nc(C)c2c1 | 23.1 µM [falling, single point] | –
50 | COc1cccc(NC(=O)NCCc2ccc(Cl)cc2)c1 | 15.8 µM [falling, single point] | –
51 | O=S(=O)(Nc1ncnc2sc3c(c12)CCC3)c1ccc2ccccc2c1 | 7.31 µM [falling, partial curve, poor fit] | –
52 | CCOc1ccccc1NC(=O)NC1CC2CCCC(C1)N2Cc1nnnn1CCc1ccccc1 (configuration not stated) | 2.06 µM [falling, single point] | –
53 | Cc1cccc(OCCN2C(=O)C(=O)c3cc(C)ccc32)c1 | 11.2 µM [rising, partial curve] | 10 µM [falling, partial curve]
54 | Cc1cnc(NC(=O)c2ccco2)s1 | 35.5 µM [falling, single point] | –
55 | CCOc1ccc(NC(=O)NCc2cccnc2)cc1 | 6.31 µM [rising, single point] | –
56 | Cc1ccc2nsnc2c1S(=O)(=O)N1CCCC1 | 12.6 µM [rising, single point] | –
57 | O=C1CC(N(CCc2ccccc2)C(=S)Nc2cc(Cl)ccc2Cl)C(=O)N1c1c(Cl)cccc1Cl (configuration not stated) | 7.08 µM [falling, partial curve] | –
58 | O=Cc1cn(-c2ccccc2)nc1-c1cc2ccccc2oc1=O | 7.31 µM [rising, partial curve, poor fit] | –
59 | Cc1onc(-c2ccccc2)c1C(=O)N1CC(C)OC(C)C1 (configuration not stated) | 25.1 µM [rising, single point] | –
60 | Cc1ccc(NC(=O)c2cc(S(=O)(=O)N3CCOCC3)cn2C)cc1F | 7.08 µM [falling, partial curve, poor fit] | –
61 | CCOc1cnn(-c2ccccc2)c(=O)c1Cl | 3.16 µM [falling, partial curve] | –
62 | CC(C)OC(=O)c1cc(C(=O)c2cc(F)ccc2O)coc1=N | 7.31 µM [falling, partial curve, poor fit] | –
63 | Cn1nc(C(=O)Nc2nc(-c3ccccn3)cs2)c2ccccc2c1=O | 0.082 µM [rising, full curve, poor fit] | –

Reformatted with tabs: 2 of the compounds above.
Row	SMILES	AC50 [1]	AC50 [2]
52	CCOc1ccccc1NC(=O)NC1CC2CCCC(C1)N2Cc1nnnn1CCc1ccccc1 (configuration not stated)	2.06 µM [falling, single point]	–
53	Cc1cccc(OCCN2C(=O)C(=O)c3cc(C)ccc32)c1	11.2 µM [rising, partial curve]	10 µM [falling, partial curve]

Reference: PubChem BioAssay AID493014 (National Center for Advancing Translational Sciences (NCATS), 2011)
